Data on 5 molecules can be found in publication doi:10.1101/2021.04.14.439766.

By UniProt entry, the sequences of proteins in these tests, tags left out.
UniProt P68104: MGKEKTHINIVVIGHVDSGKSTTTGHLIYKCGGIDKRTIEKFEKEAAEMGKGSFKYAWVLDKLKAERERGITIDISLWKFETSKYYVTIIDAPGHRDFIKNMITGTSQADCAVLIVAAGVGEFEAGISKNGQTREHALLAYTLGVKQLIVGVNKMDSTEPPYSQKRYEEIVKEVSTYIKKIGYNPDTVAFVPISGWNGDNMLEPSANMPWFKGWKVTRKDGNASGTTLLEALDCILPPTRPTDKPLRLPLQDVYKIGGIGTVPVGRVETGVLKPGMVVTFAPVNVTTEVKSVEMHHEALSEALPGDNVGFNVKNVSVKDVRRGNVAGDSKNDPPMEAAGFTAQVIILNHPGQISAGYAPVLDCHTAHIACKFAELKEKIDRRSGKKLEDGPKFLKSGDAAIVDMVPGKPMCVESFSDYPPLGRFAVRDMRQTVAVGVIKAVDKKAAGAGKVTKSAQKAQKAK

Results are given in words; binding and its absence hold for the method and conditions named. Binding seen in cells or lysates may run through a third protein. Some entries that bind do so weakly or less than the wild type. For some assays here: Where a sequence is shown, tags or fusion partners need not be part of it.

Assay [1] concerns the target T1, DEP domain-containing 1 (DEPDC1) (human (endogenous in osteosarcoma cells)) (UniProt Q5TB30).
T1 sequence: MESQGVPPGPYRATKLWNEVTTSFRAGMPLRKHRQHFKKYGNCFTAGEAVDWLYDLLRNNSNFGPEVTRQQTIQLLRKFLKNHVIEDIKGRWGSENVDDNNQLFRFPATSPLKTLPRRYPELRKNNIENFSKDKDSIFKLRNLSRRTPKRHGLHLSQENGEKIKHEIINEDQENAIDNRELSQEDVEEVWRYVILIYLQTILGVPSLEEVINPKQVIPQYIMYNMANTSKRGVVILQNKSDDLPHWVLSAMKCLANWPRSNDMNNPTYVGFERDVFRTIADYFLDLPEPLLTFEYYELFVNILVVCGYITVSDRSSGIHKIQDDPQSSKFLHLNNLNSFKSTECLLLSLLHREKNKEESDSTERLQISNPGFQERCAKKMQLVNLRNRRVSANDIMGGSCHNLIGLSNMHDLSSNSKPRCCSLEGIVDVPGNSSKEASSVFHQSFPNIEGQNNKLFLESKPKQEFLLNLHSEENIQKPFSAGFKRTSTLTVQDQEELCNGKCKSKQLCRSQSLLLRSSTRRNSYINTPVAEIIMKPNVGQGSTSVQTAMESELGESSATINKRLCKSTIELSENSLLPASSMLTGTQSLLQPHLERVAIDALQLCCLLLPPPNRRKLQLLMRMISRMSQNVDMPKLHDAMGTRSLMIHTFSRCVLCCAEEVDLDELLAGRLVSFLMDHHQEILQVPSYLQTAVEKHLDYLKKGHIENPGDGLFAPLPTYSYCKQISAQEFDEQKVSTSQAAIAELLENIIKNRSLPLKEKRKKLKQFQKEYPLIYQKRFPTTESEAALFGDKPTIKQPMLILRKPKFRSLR
Nature of the assay: co-IP.

Another assay concerns the target His-tagged-EEF1A1 (UniProt P68104). Put plainly: co-IP.

“Elongation Factor 1-alpha 1 (EEF1A1) (from UniProt P68104 1-462)”: in assay [1], the binding result is on record as “binds”.

B1: FLAG-tagged DEPDC1 fragment 107–180 (domain or fragment, UniProt Q5TB30-2 107-180)
chain: PATSPLKTLPRRYPELRKNNIENFSKDKDSIFKLRNLSRRTPKRHGLHLSQENGEKIKHEIINEDQENAIDNRE
With B1, the binding entry with His-tagged-EEF1A1 was “binds”.

B2: FLAG-tagged DEPDC1 fragment 181–406 (domain or fragment, UniProt Q5TB30-2 181-406)
chain: LSQEDVEEVWRYVILIYLQTILGVPSLEEVINPKQVIPQYIMYNMANTSKRGVVILQNKSDDLPHWVLSAMKCLANWPRSNDMNNPTYVGFERDVFRTIADYFLDLPEPLLTFEYYELFVNILGLLQPHLERVAIDALQLCCLLLPPPNRRKLQLLMRMISRMSQNVDMPKLHDAMGTRSLMIHTFSRCVLCCAEEVDLDELLAGRLVSFLMDHHQEILQVPSYLQ
For B2, the binding result with His-tagged-EEF1A1 is on record as “no binding”.

B3: FLAG-tagged DEPDC1 fragment 15–106 (domain or fragment, UniProt Q5TB30-2 15-106)
chain: KLWNEVTTSFRAGMPLRKHRQHFKKYGNCFTAGEAVDWLYDLLRNNSNFGPEVTRQQTIQLLRKFLKNHVIEDIKGRWGSENVDDNNQLFRF
Regarding B3, the binding entry with His-tagged-EEF1A1 is “binds”.

B4: FLAG-tagged DEPDC1 fragment 407–527 (domain or fragment, UniProt Q5TB30-2 407-527)
chain: TAVEKHLDYLKKGHIENPGDGLFAPLPTYSYCKQISAQEFDEQKVSTSQAAIAELLENIIKNRSLPLKEKRKKLKQFQKEYPLIYQKRFPTTESEAALFGDKPTIKQPMLILRKPKFRSLR
Turning to B4, in the assay with His-tagged-EEF1A1, the binding result is recorded as “binds”.
